Measured values published in article PMC8480232.
These are yes or no findings as the source states them, for the method shown. In cells and extracts the contact can be indirect. These calls come from enrichment with a bait or labelling near it, and not all partners need be listed. Sequences can lack the tags named with a protein.

Amino acid sequences for entries named in this document (tags omitted). Residues count along the entry.
UniProt P29844, residues 19-656: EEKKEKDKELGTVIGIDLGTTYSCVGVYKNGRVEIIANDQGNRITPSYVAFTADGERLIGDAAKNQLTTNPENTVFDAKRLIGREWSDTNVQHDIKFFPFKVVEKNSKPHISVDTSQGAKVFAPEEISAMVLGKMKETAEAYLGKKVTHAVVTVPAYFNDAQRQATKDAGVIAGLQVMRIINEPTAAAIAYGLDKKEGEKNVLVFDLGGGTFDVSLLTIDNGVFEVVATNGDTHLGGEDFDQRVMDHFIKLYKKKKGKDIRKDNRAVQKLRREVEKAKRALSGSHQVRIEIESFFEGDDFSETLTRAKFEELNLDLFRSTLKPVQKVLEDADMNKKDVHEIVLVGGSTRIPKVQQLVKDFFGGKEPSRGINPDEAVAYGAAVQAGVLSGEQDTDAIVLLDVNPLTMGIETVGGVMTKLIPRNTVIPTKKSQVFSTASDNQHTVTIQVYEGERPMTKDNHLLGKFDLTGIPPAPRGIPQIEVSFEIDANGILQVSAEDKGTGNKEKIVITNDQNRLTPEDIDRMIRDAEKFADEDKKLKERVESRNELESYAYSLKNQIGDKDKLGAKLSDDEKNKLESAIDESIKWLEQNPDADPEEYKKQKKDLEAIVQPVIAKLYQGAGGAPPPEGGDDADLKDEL
UniProt P46461: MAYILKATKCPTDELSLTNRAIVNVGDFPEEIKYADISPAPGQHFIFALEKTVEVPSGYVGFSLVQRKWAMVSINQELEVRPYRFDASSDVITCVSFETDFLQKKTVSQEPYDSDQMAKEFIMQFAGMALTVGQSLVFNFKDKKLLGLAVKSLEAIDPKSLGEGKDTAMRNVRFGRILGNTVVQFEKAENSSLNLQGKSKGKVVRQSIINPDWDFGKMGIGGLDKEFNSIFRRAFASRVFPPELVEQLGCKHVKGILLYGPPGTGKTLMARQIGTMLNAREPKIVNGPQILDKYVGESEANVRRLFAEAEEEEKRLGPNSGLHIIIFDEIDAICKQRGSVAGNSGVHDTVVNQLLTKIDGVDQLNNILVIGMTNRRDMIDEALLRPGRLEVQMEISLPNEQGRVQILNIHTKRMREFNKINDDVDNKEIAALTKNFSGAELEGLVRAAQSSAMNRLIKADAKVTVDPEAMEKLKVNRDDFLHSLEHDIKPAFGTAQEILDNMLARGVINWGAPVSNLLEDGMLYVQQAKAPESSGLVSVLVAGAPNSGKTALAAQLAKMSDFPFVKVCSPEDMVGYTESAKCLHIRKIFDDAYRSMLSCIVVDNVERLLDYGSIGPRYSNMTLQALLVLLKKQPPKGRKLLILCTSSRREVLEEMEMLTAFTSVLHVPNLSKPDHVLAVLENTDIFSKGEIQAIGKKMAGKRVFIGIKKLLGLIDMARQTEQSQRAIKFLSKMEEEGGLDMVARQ
UniProt P11147: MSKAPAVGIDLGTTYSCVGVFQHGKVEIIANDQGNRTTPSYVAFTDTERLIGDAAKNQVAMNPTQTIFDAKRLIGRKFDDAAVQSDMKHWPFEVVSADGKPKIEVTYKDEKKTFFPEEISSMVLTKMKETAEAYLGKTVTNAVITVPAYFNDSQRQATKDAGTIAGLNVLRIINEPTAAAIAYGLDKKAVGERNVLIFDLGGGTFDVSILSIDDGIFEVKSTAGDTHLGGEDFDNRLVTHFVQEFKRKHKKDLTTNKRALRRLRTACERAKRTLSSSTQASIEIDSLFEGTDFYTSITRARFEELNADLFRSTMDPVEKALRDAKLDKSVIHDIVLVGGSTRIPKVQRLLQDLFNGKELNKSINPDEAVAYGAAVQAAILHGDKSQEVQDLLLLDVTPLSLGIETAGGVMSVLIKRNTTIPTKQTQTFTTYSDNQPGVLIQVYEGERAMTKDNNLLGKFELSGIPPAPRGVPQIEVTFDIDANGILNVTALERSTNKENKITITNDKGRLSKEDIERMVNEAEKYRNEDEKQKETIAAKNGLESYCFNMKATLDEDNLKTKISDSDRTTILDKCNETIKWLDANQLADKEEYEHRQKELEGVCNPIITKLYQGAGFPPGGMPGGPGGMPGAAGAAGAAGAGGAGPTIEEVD

Biological target: T1, N-terminally EGFP-tagged cysteine string protein (Csp) (Drosophila melanogaster) (UniProt Q03751)
T1 sequence: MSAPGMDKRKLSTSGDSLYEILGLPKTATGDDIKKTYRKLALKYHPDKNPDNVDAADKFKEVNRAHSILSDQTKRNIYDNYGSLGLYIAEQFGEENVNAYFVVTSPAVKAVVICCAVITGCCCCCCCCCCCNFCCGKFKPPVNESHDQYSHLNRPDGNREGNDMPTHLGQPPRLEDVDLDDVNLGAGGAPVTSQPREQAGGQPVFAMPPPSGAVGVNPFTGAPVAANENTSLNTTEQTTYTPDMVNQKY
Assay: affinity purification with mass spectrometry; EGFP-tagged Csp precipitated with GFP-Trap Dynabeads from lysate of about 4,500 adult fly heads in NETN buffer (50mM Tris pH 7.3, 170mM NaCl, 1mM EDTA, 0.5% NP-40), 1 hour, washed with ice cold NETN; SDS-PAGE, in-gel trypsin digest, LC-MS/MS; compared with EGFP control flies

| binding | Substance |
| --- | --- |
| binds | Hsc70-3 (from UniProt P29844 19-656) |
| binds | Comatose (from UniProt P46461 1-745) |
| binds | Hsc70-4 (from UniProt P11147 1-651) |
